No constants are given. Whether binding was seen depends on the method and setting. Some results given as binding are weak or reduced against the parent protein; the word gives no strength.
What was measured:
[1] = target: T1, Human EREG (Biacore analyte) (human) (UniProt O14944); assay: SPR (Biacore T100, single-cycle kinetics), antibody captured on Protein A, human EREG as analyte; bar = KD of the antibody / KD of chimeric EP27 (cH-G1/cL-k)
T1 sequence: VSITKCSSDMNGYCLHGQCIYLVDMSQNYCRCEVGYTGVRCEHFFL

[2] = target: T1, Human EREG (Biacore analyte) (human); assay: SPR (Biacore)
[3] = target: T2, cynomolgus EREG (Biacore analyte) (cynomolgus monkey); assay: SPR (Biacore)
T2 sequence: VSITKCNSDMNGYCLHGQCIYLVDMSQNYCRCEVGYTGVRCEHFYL

[4] = target: T2, cynomolgus EREG (Biacore analyte) (cynomolgus monkey); assay: SPR (Biacore T100, single-cycle kinetics), antibody captured on Protein A, cynomolgus or human EREG as analyte; bar = KD for monkey Epiregulin / KD for human Epiregulin
[5] = target: T1, Human EREG (Biacore analyte) (human); assay: SPR (Biacore T100, single-cycle kinetics), antibody captured on Protein A, human EREG as analyte; bar = KD of the antibody / KD of chimeric EP27

Measured: binding

B1: H124-G1d/LB-k (antibody, human IgG1, kappa, V domains shown)
VH: QDQLVQSGAEVKKPGASVKVSCKASGFNIKDTRIQWVRQAPGQGLEWMGRIDPLRGNTKYREKFEGRVTITADTSTNTAYMELSSLRSEDTAVYYCVRSGTLFDFWGQGTLVTVSS
VL: DIQMTQSPSSLSASVGDRVTITCKASQDIHKYIAWYQQKPGQAPRLLIQYTSTLQPGVPSRFSGSGSGTDYTFTISSLQPEDIATYYCLQYDNLRTFGGGTKVEIKR
binds: [1]

B2: H131-G1d/LB-k (antibody, human IgG1, kappa, V domains shown)
VH: QDQLVQSGAEVKKPGASVKVSCKASGFNIKDTYIQWVRQAPGQGLEWMGRIDPLRRNTKYREKFEGRVTITADTSTNTAYMELSSLRSEDTAVYYCVRSRTLFDFWGQGTLVTVSS
VL: DIQMTQSPSSLSASVGDRVTITCKASQDIHKYIAWYQQKPGQAPRLLIQYTSTLQPGVPSRFSGSGSGTDYTFTISSLQPEDIATYYCLQYDNLRTFGGGTKVEIKR
binds: [1]

B3: H133-G1d/LB-k (antibody, human IgG1, kappa, V domains shown)
VH: QDQLVQSGAEVKKPGASVKVSCKASGFNIKDTYIQWVRQAPGQGLEWMGRIDPLRRNTKYREKFEGRVTITADTSTNTAYMELSSLRSEDTAVYYCVRSGTRFDFWGQGTLVTVSS
VL: DIQMTQSPSSLSASVGDRVTITCKASQDIHKYIAWYQQKPGQAPRLLIQYTSTLQPGVPSRFSGSGSGTDYTFTISSLQPEDIATYYCLQYDNLRTFGGGTKVEIKR
binds: [1]

B4: H111-G1d/L47-k (antibody, human IgG1, kappa, V domains shown)
VH: QDQLVQSGAEVKKPGASVKVSCKASGFNIKDTYIQWVRQAPGQGLEWMGRIDPLRGNTKYREKFEGRVTITADTSTNTAYMELSSLRSEDTAVYYCVRSGTLFDFWGQGTLVTVSS
VL: DIQMTQSPSSLSASVGDRVTITCKASQDIHKYIAWYQQKPGQAPRLLIQYTSTLQPGVPSRFSGSGSGTDYTFTISSLQPEDIATYYCLQYDRLRTFGGGTKVEIKR
binds: [1]

B5: H197-G1d/LB-k (antibody, human IgG1, kappa, V domains shown)
VH: QDQLVQSGAEVKKPGASVKVSCKASGFNIKDTYIQWVRQAPGQGLEWMGRIDPLRRQTKYHEKFEGRVTITADTSTNTAYMELSSLRSEDTAVYYCVRSGRSFDFWGQGTLVTVSS
VL: DIQMTQSPSSLSASVGDRVTITCKASQDIHKYIAWYQQKPGQAPRLLIQYTSTLQPGVPSRFSGSGSGTDYTFTISSLQPEDIATYYCLQYDNLRTFGGGTKVEIKR
not listed: [1]
binds: all other assays above

B6: H197-G1d/L48-k (antibody, human IgG1, kappa, V domains shown)
VH: QDQLVQSGAEVKKPGASVKVSCKASGFNIKDTYIQWVRQAPGQGLEWMGRIDPLRRQTKYHEKFEGRVTITADTSTNTAYMELSSLRSEDTAVYYCVRSGRSFDFWGQGTLVTVSS
VL: DIQMTQSPSSLSASVGDRVTITCKASQDIHKYIAWYQQKPGQAPRLLIQYTSTLQPGVPSRFSGSGSGTDYTFTISSLQPEDIATYYCLQYDNRRTFGGGTKVEIKR
not listed: [1]
binds: all other assays above

B7: H204-G1d/LB-k (antibody, human IgG1, kappa, V domains shown)
VH: QDQLVQSGAEVKKPGASVKVSCKASGFNIKDTYIQWVRQAPGQGLEWMGRIDPLRRQTKYREKFEGRVTITADTSTNTAYMELSSLRAEDTAVYYCVRSGREFDFWGQGTLVTVSS
VL: DIQMTQSPSSLSASVGDRVTITCKASQDIHKYIAWYQQKPGQAPRLLIQYTSTLQPGVPSRFSGSGSGTDYTFTISSLQPEDIATYYCLQYDNLRTFGGGTKVEIKR
not listed: [1]
binds: all other assays above

B8: H205-G1d/LB-k (antibody, human IgG1, kappa, V domains shown)
VH: QDQLVQSGAEVKKPGASVKVSCKASGFNIKDTYIQWVRQAPGQGLEWMGRIDPLRRQTKYREKFEGRVTITADTSTNTAYMELSSLRSEDTAVYYCVRSGREFDYWGQGTLVTVSS
VL: DIQMTQSPSSLSASVGDRVTITCKASQDIHKYIAWYQQKPGQAPRLLIQYTSTLQPGVPSRFSGSGSGTDYTFTISSLQPEDIATYYCLQYDNLRTFGGGTKVEIKR
not listed: [1]
binds: all other assays above

B9: H207-G1d/L48-k (antibody, human IgG1, kappa, V domains shown)
VH: QDQLVQSGAEVKKPGASVKVSCKASGFNIKDTYIQWVRQAPGQGLEWMGRIDPLRRQTKYREKFEGRVTITADESTNTAYMELSSLRSEDTAVYYCVRSGREFDFWGQGTLVTVSS
VL: DIQMTQSPSSLSASVGDRVTITCKASQDIHKYIAWYQQKPGQAPRLLIQYTSTLQPGVPSRFSGSGSGTDYTFTISSLQPEDIATYYCLQYDNRRTFGGGTKVEIKR
not listed: [1]
binds: all other assays above

B10: H207-G1d/LB-k (antibody, human IgG1, kappa, V domains shown)
VH: QDQLVQSGAEVKKPGASVKVSCKASGFNIKDTYIQWVRQAPGQGLEWMGRIDPLRRQTKYREKFEGRVTITADESTNTAYMELSSLRSEDTAVYYCVRSGREFDFWGQGTLVTVSS
VL: DIQMTQSPSSLSASVGDRVTITCKASQDIHKYIAWYQQKPGQAPRLLIQYTSTLQPGVPSRFSGSGSGTDYTFTISSLQPEDIATYYCLQYDNLRTFGGGTKVEIKR
not listed: [1]
binds: all other assays above

B11: H210-G1d/LB-k (antibody, human IgG1, kappa, V domains shown)
VH: QDQLVQSGAEVKKPGASVKVSCKASGFNIKDTYIQWVRQAPGQGLEWMGRIDPLRRQTKYKEKFEGRVTITADTSTNTAYMELSSLRSEDTAVYYCVRSGREFDFWGQGTLVTVSS
VL: DIQMTQSPSSLSASVGDRVTITCKASQDIHKYIAWYQQKPGQAPRLLIQYTSTLQPGVPSRFSGSGSGTDYTFTISSLQPEDIATYYCLQYDNLRTFGGGTKVEIKR
not listed: [1]
binds: all other assays above

B12: H211-G1d/L48-k (antibody, human IgG1, kappa, V domains shown)
VH: QDQLVQSGAEVKKPGASVKVSCKASGFNIKDTYIQWVRQAPGQGLEWMGRIDPLRRQTKYHEKFEGRVTITADTSTNTAYMELSSLRSEDTAVYYCVRSGREFDFWGQGTLVTVSS
VL: DIQMTQSPSSLSASVGDRVTITCKASQDIHKYIAWYQQKPGQAPRLLIQYTSTLQPGVPSRFSGSGSGTDYTFTISSLQPEDIATYYCLQYDNRRTFGGGTKVEIKR
not listed: [1]
binds: all other assays above

B13: H211-G1d/LB-k (antibody, human IgG1, kappa, V domains shown)
VH: QDQLVQSGAEVKKPGASVKVSCKASGFNIKDTYIQWVRQAPGQGLEWMGRIDPLRRQTKYHEKFEGRVTITADTSTNTAYMELSSLRSEDTAVYYCVRSGREFDFWGQGTLVTVSS
VL: DIQMTQSPSSLSASVGDRVTITCKASQDIHKYIAWYQQKPGQAPRLLIQYTSTLQPGVPSRFSGSGSGTDYTFTISSLQPEDIATYYCLQYDNLRTFGGGTKVEIKR
not listed: [1]
binds: all other assays above

B14: H212-G1d/L48-k (antibody, human IgG1, kappa, V domains shown)
VH: QDQLVQSGAEVKKPGASVKVSCKASGFNIKDTYIQWVRQAPGQGLEWMGRIDPLRKQTKYREKFEGRVTITADTSTNTAYMELSSLRSEDTAVYYCVRSGREFDFWGQGTLVTVSS
VL: DIQMTQSPSSLSASVGDRVTITCKASQDIHKYIAWYQQKPGQAPRLLIQYTSTLQPGVPSRFSGSGSGTDYTFTISSLQPEDIATYYCLQYDNRRTFGGGTKVEIKR
not listed: [1]
binds: all other assays above

B15: H212-G1d/LB-k (antibody, human IgG1, kappa, V domains shown)
VH: QDQLVQSGAEVKKPGASVKVSCKASGFNIKDTYIQWVRQAPGQGLEWMGRIDPLRKQTKYREKFEGRVTITADTSTNTAYMELSSLRSEDTAVYYCVRSGREFDFWGQGTLVTVSS
VL: DIQMTQSPSSLSASVGDRVTITCKASQDIHKYIAWYQQKPGQAPRLLIQYTSTLQPGVPSRFSGSGSGTDYTFTISSLQPEDIATYYCLQYDNLRTFGGGTKVEIKR
not listed: [1]
binds: all other assays above

B16: H213-G1d/L48-k (antibody, human IgG1, kappa, V domains shown)
VH: QDQLVQSGAEVKKPGASVKVSCKASGFNIKDTYIQWVRQAPGQGLEWMGRIDPLRHQTKYREKFEGRVTITADTSTNTAYMELSSLRSEDTAVYYCVRSGREFDFWGQGTLVTVSS
VL: DIQMTQSPSSLSASVGDRVTITCKASQDIHKYIAWYQQKPGQAPRLLIQYTSTLQPGVPSRFSGSGSGTDYTFTISSLQPEDIATYYCLQYDNRRTFGGGTKVEIKR
not listed: [1]
binds: all other assays above

B17: H213-G1d/LB-k (antibody, human IgG1, kappa, V domains shown)
VH: QDQLVQSGAEVKKPGASVKVSCKASGFNIKDTYIQWVRQAPGQGLEWMGRIDPLRHQTKYREKFEGRVTITADTSTNTAYMELSSLRSEDTAVYYCVRSGREFDFWGQGTLVTVSS
VL: DIQMTQSPSSLSASVGDRVTITCKASQDIHKYIAWYQQKPGQAPRLLIQYTSTLQPGVPSRFSGSGSGTDYTFTISSLQPEDIATYYCLQYDNLRTFGGGTKVEIKR
not listed: [1]
binds: all other assays above

B18: H224-G1d/L53-k (antibody, human IgG1, kappa, V domains shown)
VH: QDQLVQSGAEVKNPGASVKVSCKASGFNIKDTYIQWVRQAPGQGLEWMGRIDPLRRQTKYREKFEGRVTITADTSTNTAYMELSSLRAEDTAVYYCVRSGREFDYWGQGTLVTVSS
VL: DIQMTQSPSSLSASVGDRVTITCRASQDIHKYIAWYQQKPGQAPRLLIQYTSTLQPGVPSRFSGSGSGTDYTFTISSLQPEDIATYYCLQYDNLRTFGGGTKVEIKR
not listed: [1]
binds: all other assays above

Source: US20150110793A1
